Experimental data: PubChem BioAssay AID1224831 (NIAID, 2016)

Aim: 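Genes that support or restrain LPS-induced TNF-alpha reporter activity in macrophage-like cells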 (follow-up of hits)
System: human THP-1 B5 monocytic leukaemia cells carrying a TNF promoter luciferase reporter, made macrophage-like with PMA
Reagents: single siRNA against human genes, 50 nM
Time to read-out: about 68 h of knock-down, then 4 h LPS
Conditions: LPS (Salmonella minnesota, TLR-grade) at 10 ng/ml for 4 h; PMA 5 ng/ml present during knock-down
Read-out: 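TNF promoter reporter read as dual luciferase ratio after 4 h LPS, normalised per plate to its median, given as replicate mean robust z-score per siRNA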
Scale: TNF reporter z-score: higher = stronger LPS-induced TNF reporter signal; z-score, median over gene's siRNAs: higher = stronger TNF reporter signal across the gene's siRNAs
Rule for the call: 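Active when the replicate mean z-score is about -1 or lower, or about 1.5 or higher; lowered and raised TNF reporter signal both count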
Calls: active = changed TNF reporter (either direction); inactive = little change
The deposit covers about 3,500 reagents; below is a random part of them. Over the whole deposit, 731 (21%) got an active call. 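Active means either lowered or raised reporter signal; the gene-median score did not drive the per-siRNA calls.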 The numbers tell different reagents against one gene apart. No sequences are given here.

CHEK1 (checkpoint kinase 1) #1 — TNF reporter z-score, replicate mean = 0.52; z-score, median over gene's siRNAs = 1.32; Call = inactive
CHEK1 (checkpoint kinase 1) #2 — TNF reporter z-score, replicate mean = 1.31; z-score, median over gene's siRNAs = 1.32; Call = inactive
CHEK1 (checkpoint kinase 1) #3 — TNF reporter z-score, replicate mean = 1.34; z-score, median over gene's siRNAs = 1.32; Call = inactive
CHEK1 (checkpoint kinase 1) #4 — TNF reporter z-score, replicate mean = -0.35; z-score, median over gene's siRNAs = 1.32; Call = inactive
CHEK1 (checkpoint kinase 1) #5 — TNF reporter z-score, replicate mean = 3.31; z-score, median over gene's siRNAs = 1.32; Call = active
CHEK1 (checkpoint kinase 1) #6 — TNF reporter z-score, replicate mean = 2.67; z-score, median over gene's siRNAs = 1.32; Call = active
RNASE10 (ribonuclease A family member 10 (inactive)) #1 — TNF reporter z-score, replicate mean = 0.34; z-score, median over gene's siRNAs = 0.13; Call = inactive
RNASE10 (ribonuclease A family member 10 (inactive)) #2 — TNF reporter z-score, replicate mean = -0.08; z-score, median over gene's siRNAs = 0.13; Call = inactive
RNASE10 (ribonuclease A family member 10 (inactive)) #3 — TNF reporter z-score, replicate mean = -0.28; z-score, median over gene's siRNAs = 0.13; Call = inactive
RNASE10 (ribonuclease A family member 10 (inactive)) #4 — TNF reporter z-score, replicate mean = -0.65; z-score, median over gene's siRNAs = 0.13; Call = inactive
RNASE10 (ribonuclease A family member 10 (inactive)) #5 — TNF reporter z-score, replicate mean = 2.1; z-score, median over gene's siRNAs = 0.13; Call = active
RNASE10 (ribonuclease A family member 10 (inactive)) #6 — TNF reporter z-score, replicate mean = 0.94; z-score, median over gene's siRNAs = 0.13; Call = inactive
ISOC2 (isochorismatase domain containing 2) #1 — TNF reporter z-score, replicate mean = 0.93; z-score, median over gene's siRNAs = 0.8; Call = inactive
ISOC2 (isochorismatase domain containing 2) #2 — TNF reporter z-score, replicate mean = 0.67; z-score, median over gene's siRNAs = 0.8; Call = inactive
ISOC2 (isochorismatase domain containing 2) #3 — TNF reporter z-score, replicate mean = 2.24; z-score, median over gene's siRNAs = 0.8; Call = active
ISOC2 (isochorismatase domain containing 2) #4 — TNF reporter z-score, replicate mean = -1.25; z-score, median over gene's siRNAs = 0.8; Call = active
ISOC2 (isochorismatase domain containing 2) #5 — TNF reporter z-score, replicate mean = -0.15; z-score, median over gene's siRNAs = 0.8; Call = inactive
ISOC2 (isochorismatase domain containing 2) #6 — TNF reporter z-score, replicate mean = 1.2; z-score, median over gene's siRNAs = 0.8; Call = inactive
CALM3 (calmodulin 3) #1 — TNF reporter z-score, replicate mean = 1.07; z-score, median over gene's siRNAs = 1.14; Call = inactive
CALM3 (calmodulin 3) #2 — TNF reporter z-score, replicate mean = 1.2; z-score, median over gene's siRNAs = 1.14; Call = inactive
CALM3 (calmodulin 3) #3 — TNF reporter z-score, replicate mean = 0.71; z-score, median over gene's siRNAs = 1.14; Call = inactive
CALM3 (calmodulin 3) #4 — TNF reporter z-score, replicate mean = 4.55; z-score, median over gene's siRNAs = 1.14; Call = active
CALM3 (calmodulin 3) #5 — TNF reporter z-score, replicate mean = 2; z-score, median over gene's siRNAs = 1.14; Call = active
CALM3 (calmodulin 3) #6 — TNF reporter z-score, replicate mean = 0.86; z-score, median over gene's siRNAs = 1.14; Call = inactive
JUP (junction plakoglobin) #1 — TNF reporter z-score, replicate mean = -0.1; z-score, median over gene's siRNAs = -0.845; Call = inactive
JUP (junction plakoglobin) #2 — TNF reporter z-score, replicate mean = -0.58; z-score, median over gene's siRNAs = -0.845; Call = inactive
JUP (junction plakoglobin) #3 — TNF reporter z-score, replicate mean = -1.09; z-score, median over gene's siRNAs = -0.845; Call = active
JUP (junction plakoglobin) #4 — TNF reporter z-score, replicate mean = -1.31; z-score, median over gene's siRNAs = -0.845; Call = active
JUP (junction plakoglobin) #5 — TNF reporter z-score, replicate mean = -1.17; z-score, median over gene's siRNAs = -0.845; Call = active
JUP (junction plakoglobin) #6 — TNF reporter z-score, replicate mean = -0.6; z-score, median over gene's siRNAs = -0.845; Call = inactive

3 consecutive entries already listed, quoted:
ISOC2 (isochorismatase domain containing 2) #6 — TNF reporter z-score, replicate mean = 1.2; z-score, median over gene's siRNAs = 0.8; Call = inactive
CALM3 (calmodulin 3) #1 — TNF reporter z-score, replicate mean = 1.07; z-score, median over gene's siRNAs = 1.14; Call = inactive
CALM3 (calmodulin 3) #2 — TNF reporter z-score, replicate mean = 1.2; z-score, median over gene's siRNAs = 1.14; Call = inactive
